# Whole data set: some 1,600 compounds, median “plate-normalized OD600 growth (mean of duplicates)” near 0.31, cut for the lowest 2% near 0.23. This is one part of the list.
# Tested on: Escherichia coli BW25113
# Assay: plate-normalized OD600 growth (mean of duplicates) (OD600 (normalized)); higher = more growth (less inhibition)
# Details: 10 µM
# Procedure: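 E. coli BW25113 in LB (100 µl, 96-well, no shaking) was exposed to 10 µM of each compound (here the ChemBridge subset of a ~30,000-member library) and grown at 37°C for 24 h or 15°C for 48 h, in duplicate. Growth was read as OD600 and the duplicate ODs were normalized across screening plates to correct plate-to-plate variation.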
Structure (SMILES),"plate-normalized OD600 growth (temperature: 15°C, 48 h)","plate-normalized OD600 growth (temperature: 37°C, 24 h)"
CN(C)c1nc(N)nc(-c2ccco2)n1,0.226,0.632
O=Cc1cc2c3c(c1O)CCCN3CCC2,0.232,0.598
Cc1c(N=CN(C)C)c(=O)n(-c2ccccc2)n1C,0.261,0.634
CC(=O)Nc1cccc(NC(=O)c2cccs2)c1,0.233,0.614
CCC(C)NC(=O)C(Cc1ccc([N+](=O)[O-])cc1)N1C(=O)c2ccccc2C1=O (stereo unspecified),0.253,0.618
Cc1ccc(C(=O)N2CCN(c3ccccc3)CC2)cc1,0.268,0.629
Cc1ccc(N2C(=O)CC(N3CCN(c4ccc([N+](=O)[O-])cc4)CC3)C2=O)c(C)c1 (stereo unspecified),0.218,0.612
O=C(NC1CCCCC1NC(=O)C1CC1c1ccccc1)C1CC1c1ccccc1 (stereo unspecified),0.264,0.622
CC(=O)N1CCN(C2CCN(CCc3ccccc3)CC2)CC1,0.249,0.63
C/C=C(\CS(=O)(=O)c1ccccc1)S(=O)(=O)c1ccccc1,0.246,0.624
CCN(CC)C(=O)c1sc2ccccc2c1Cl,0.246,0.603
Cc1ccc(C(=O)NCC(O)c2ccccc2)cc1 (stereo unspecified),0.243,0.6
O=C(Nc1nc(-c2ccccc2)cs1)c1c(O)c2ccccc2[nH]c1=O,0.252,0.62
CSc1ccc(CN2CCN(S(=O)(=O)c3ccc([N+](=O)[O-])cc3)CC2)cc1,0.27,0.625
Oc1c(Cl)cc(Cl)cc1C(C#Cc1ccccc1)N1CCOCC1 (stereo unspecified),0.262,0.62
Cc1ccc(CN(C)CCc2ccccn2)cc1,0.272,0.619
Cc1[nH]n(-c2ccccc2)c(=O)c1C=O,0.224,0.605
O=C(O)c1cccc(NC(=O)c2ccco2)c1,0.252,0.618
CC(C)(C)c1csc(NC(=O)c2ccco2)n1,0.229,0.608
Cc1ccc2ncnc(-c3ccccc3)c2c1,0.253,0.621
CC1(C)CC(n2c(NCCO)nc3c(c2=O)C2(CCCCC2)Cc2ccccc2-3)CCO1 (stereo unspecified),0.251,0.631
COc1ccc(N(C(C)=O)c2nc3ccccc3[nH]2)cc1,0.25,0.621
CC(C)CS(=O)(=O)c1cccs1,0.253,0.616
CCCSc1nc(O)c(CC)c(=O)n1-c1ccccc1,0.257,0.61
Clc1ccccc1CN1CCc2c([nH]c3ccccc23)C1,0.246,0.636
COc1ccc(C)cc1NCc1ccc(SC)cc1,0.282,0.644
CC(C)(C)c1ccc(OCCCn2ccnc2)cc1,0.251,0.606

Structure (SMILES),"plate-normalized OD600 growth (temperature: 15°C, 48 h)","plate-normalized OD600 growth (temperature: 37°C, 24 h)"
CCCN(Cc1cccc([N+](=O)[O-])c1)CC1CC1,0.246,0.607
N#C/C(=C/c1ccc(F)cc1)c1nc(-c2ccccc2)cs1,0.238,0.598
COc1ccc(C2(CNC(C)=O)CCOCC2)cc1OC,0.259,0.629
CC1(C)CC(=O)C2=C(C1)Nc1ccccc1NC2c1cc2c(cc1[N+](=O)[O-])OCO2 (stereo unspecified),0.225,0.606
CC(=O)c1ccc(OCCOc2ccc(C(C)=O)cc2)cc1,0.248,0.607
NC(Cc1c[nH]c2ccc(OCc3ccccc3)cc12)C(=O)O (stereo unspecified),0.243,0.586
O=S(=O)(c1ccc(Cl)c(Cl)c1)N1CCCCC1,0.252,0.619
O=C(C(Cl)Cl)N1CCN(c2ccc([N+](=O)[O-])cc2)CC1,0.251,0.63
COc1cccc(N2CCN(C/C=C/c3ccccc3[N+](=O)[O-])CC2)c1,0.257,0.637
COc1ccccc1OCCSc1nc2ccccc2o1,0.261,0.608
Cc1cc(SCC(C)C)n2ncnc2n1,0.248,0.656
N#CCCS(=O)(=O)c1ccc(Br)cc1,0.258,0.63
Cc1c(C(=O)NN2CCN(C)CC2)cccc1[N+](=O)[O-],0.265,0.618
COc1ccc(C(=O)N2CCN(CC(=O)N3CCOCC3)CC2)cc1,0.236,0.646
COc1cc(NC(=O)c2ccc([N+](=O)[O-])cc2)c(OC)cc1NC(C)=O,0.257,0.622
COc1ccc(CN2CCSCC2)c(C)c1C,0.247,0.642
O=C1C(=O)c2ccccc2C(O)=C1c1ccc(Cl)cc1,0.274,0.651
Cc1cc([N+](=O)[O-])nn1CC(=O)NCC(C)C,0.264,0.617
C(=C\c1cc(/C=C/c2ccccc2)ncn1)/c1ccccc1,0.252,0.626
Nc1ccc(C(=O)Nc2ccc(NC(=O)c3ccc(N)cc3)cc2)cc1,0.254,0.612
Nn1c(CCC(=O)O)nc2sc3c(c2c1=O)CCCC3,0.25,0.635
CCC1CCC(NCc2cccc(OC)c2OC)CC1 (stereo unspecified),0.253,0.603
Cc1ccc(C(C)NC(=O)c2ccccc2)c(C)c1 (stereo unspecified),0.267,0.619
CC(C)(C)C1=C[C@@H](CO)C[C@@H](CO)C1,0.248,0.635
COc1ccc(-c2csc(C(C#N)=Cc3ccc(F)cc3)n2)cc1OC,0.244,0.612
Oc1cc(-c2nc3ccccc3o2)c(O)cc1-c1nc2ccccc2o1,0.247,0.63

# Record cards, from the list above:
# CCCN(Cc1cccc([N+](=O)[O-])c1)CC1CC1 is listed as plate-normalized OD600 growth (temperature: 15°C, 48 h): 0.246; plate-normalized OD600 growth (temperature: 37°C, 24 h): 0.607
# CC(C)(C)C1=C[C@@H](CO)C[C@@H](CO)C1 is listed as plate-normalized OD600 growth (temperature: 15°C, 48 h): 0.248; plate-normalized OD600 growth (temperature: 37°C, 24 h): 0.635

# Reference: the supplement of paper PMC4371806
